Reference: PubChem BioAssay AID328 (DTP/NCI, 2004)
The list is a part of this screen's results and no random one: it gathers some chemical classes. Other doses and runs of a compound may be missing. T/C gives the treated animals as a percentage of the vehicle group. Some entries give survivors of the animals treated and no T/C: the source holds a T/C of zero for them, seemingly a mark for toxic or unscored doses. Some doses without a T/C left all or most animals alive at the check, yet need not have been tolerated: survival well below the control is almost never listed, so the zero probably covers shortened survival too. Counts of survivors are from the toxicity check (mostly the fifth day) where no day follows; animals may have died later. Schedules are NCI's codes, read here as Q, the interval in days (D) or hours (H), X, the number of doses. For survival time, the PubChem record calls one and a half times the control and up active, and a quarter to a half above the control has no call in these data; cut-offs in other NCI protocols can differ. Some entries were tested several times; the results are listed from low to high. Some T/C values are marked as having no survivor count here; that says nothing about deaths at the dose.

System: BDF1 mice, P388 leukemia ip, median survival T/C
Assay: NCI In Vivo Anticancer Drug Screen. Data for tumor model P388 Leukemia (intraperitoneal) in B6D2F1 (BDF1) mice
Conditions: T/C endpoint: median survival time, higher T/C = longer survival
Summary of the method: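 Antitumour effect was judged in vivo: survival in drug-treated mice, normalised to that of vehicle-dosed controls, gives the reported T/C.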

[1] = dose: 100.0 mg/kg/injection, schedule: Q04DX003 (ip), vehicle: saline
[2] = dose: 200.0 mg/kg/injection, schedule: Q04DX003 (ip), vehicle: saline

Compound: NC1CCCCC1.O=P(O)(N(CCCl)CCCl)N1CC1
- T/C (dose: 1.25 mg/kg/injection, schedule: Q01DX010 (ip), vehicle: saline): 163 % of control
- T/C (dose: 2.5 mg/kg/injection, schedule: Q01DX010 (ip), vehicle: saline): 177 and 186 % of control
- T/C (dose: 3.13 mg/kg/injection, schedule: Q01DX009 (ip), vehicle: saline): 256 % of control
- T/C (dose: 5.0 mg/kg/injection, schedule: Q01DX010 (ip), vehicle: saline): 195 and 218 % of control
- T/C (dose: 6.25 mg/kg/injection, schedule: Q01DX009 (ip), vehicle: saline): 256 % of control
- T/C (dose: 10.0 mg/kg/injection, schedule: Q01DX010 (ip), vehicle: saline): 250 and 259 % of control
- T/C (dose: 12.5 mg/kg/injection, schedule: Q01DX001 (ip), vehicle: saline): 141 % of control
- T/C (dose: 12.5 mg/kg/injection, schedule: Q01DX009 (ip), vehicle: saline): 181 % of control
- T/C (dose: 12.5 mg/kg/injection, schedule: Q04DX003 (ip), vehicle: saline): 232 % of control
- T/C (dose: 12.5 mg/kg/injection, schedule: Q08DX002 (ip), vehicle: saline): 218 % of control
- T/C (dose: 20.0 mg/kg/injection, schedule: Q01DX010 (ip), vehicle: saline): 300 % of control
- T/C (dose: 25.0 mg/kg/injection, schedule: Q01DX001 (ip), vehicle: saline): 179 % of control
- survivor count (dose: 25.0 mg/kg/injection, schedule: Q01DX009 (ip), vehicle: saline): 6 of 6
- T/C (dose: 25.0 mg/kg/injection, schedule: Q04DX003 (ip), vehicle: saline): 258 % of control
- T/C (dose: 25.0 mg/kg/injection, schedule: Q08DX002 (ip), vehicle: saline): 252 % of control
- T/C (dose: 50.0 mg/kg/injection, schedule: Q01DX001 (ip), vehicle: saline): 262 % of control
- survivor count (dose: 50.0 mg/kg/injection, schedule: Q01DX009 (ip), vehicle: saline): 6 of 6
- T/C (dose: 50.0 mg/kg/injection, schedule: Q04DX003 (ip), vehicle: saline): 88 % of control
- T/C (dose: 50.0 mg/kg/injection, schedule: Q08DX002 (ip), vehicle: saline): 271 % of control
- survivor count (dose: 100.0 mg/kg/injection, schedule: Q01DX001 (ip), vehicle: saline): 6 of 6
- survivor count [1]: 4 of 6
- T/C (dose: 100.0 mg/kg/injection, schedule: Q08DX002 (ip), vehicle: saline): 119 % of control
- survivor count (dose: 200.0 mg/kg/injection, schedule: Q01DX001 (ip), vehicle: saline): 5 of 6
- survivor count [2]: 0 of 6
- survivor count (dose: 200.0 mg/kg/injection, schedule: Q08DX002 (ip), vehicle: saline): 2 of 6

Compound: CCOC(=O)C(CC(C)C)NC(=O)N(CCCl)CCCl (centres undefined)
- T/C (dose: 100.0 mg/kg/injection, schedule: Q04DX003 (ip), vehicle: saline with Tween-80): 96 % of control
- T/C (dose: 200.0 mg/kg/injection, schedule: Q04DX003 (ip), vehicle: saline with Tween-80): 96 % of control
- T/C (dose: 400.0 mg/kg/injection, schedule: Q04DX003 (ip), vehicle: saline with Tween-80): 103 % of control

Compound: CC(C)OP(C)(O)=S (centres undefined)
- T/C (dose: 12.5 mg/kg/injection, schedule: Q01DX005 (ip), vehicle: saline): 95 % of control
- T/C (dose: 25.0 mg/kg/injection, schedule: Q01DX005 (ip), vehicle: saline): 97 % of control
- T/C (dose: 50.0 mg/kg/injection, schedule: Q01DX005 (ip), vehicle: saline): 103 % of control

Compound: Cn1/c(=N/Nc2c([N+](=O)[O-])cc([N+](=O)[O-])cc2[N+](=O)[O-])sc2ccccc21
- T/C [1]: 90 % of control [survivor count not shown]
- T/C [2]: 90 % of control [survivor count not shown]
- T/C (dose: 400.0 mg/kg/injection, schedule: Q04DX003 (ip), vehicle: saline): 95 % of control [survivor count not shown]
